This continues a long series; more values of the same kind are listed elsewhere.
Test system: L. major lysate proteins
Assay: Multitargeted bead mixture chemoproteomics, single concentration competition, proteome-wide
Assay type: binding
Conditions: for fold change: vehicle control = 1

Nc1nc2[nH]cc(CCc3ccc(C(=O)N[C@@H](CCC(=O)O)C(=O)O)cc3)c2c(=O)[nH]1 [PTX, pemetrexed]
0.98: fold change (protein LINJ.05.0070 DYNEIN LIGHT CHAIN, PUTATIVE) | fold change (protein LINJ.32.2960 […]-ATP-ASE SUBUNIT, PUTATIVE) | fold change (protein LINJ.32.3230 PROTEIN PHOSPHATASE 2A CATALYTIC SUBUNIT, PUTATIVE) | fold change (protein LMJF.18.0740 […] TU, PUTATIVE) | fold change vs vehicle control (protein LMJF.20.1180 CALPAIN-LIKE CYSTEINE PEPTIDASE, PUTATIVE,CYSTEINE PEPTIDASE, CLAN CA, FAMILY C2, PUTATIVE) | fold change (protein LMJF.25.1540 HY[…], CONSERVED (mitochondrial RNA binding complex 1 subunit, putative)) | fold change vs vehicle control (protein LMJF.27.1300 HY[…], CONSERVED) | fold change (protein LMJF.27.1310 ARGINYL-TRNA SYNTHETASE, PUTATIVE)
0.92: fold change (protein LMJF.11.0220 PTERIN-4-ALPHA-CARBINOLAMINE DEHYDRATASE, PUTATIVE) | fold change (protein LMJF.12.1130 NADH:FLAVIN OXIDOREDUCTASE/NADH OXIDASE, PUTATIVE) | fold change (protein LMJF.13.0570 40S RIBOSOMAL PROTEIN S12, PUTATIVE) | fold change (protein LMJF.18.1510 P-TYPE H -ATPASE, PUTATIVE) | fold change (protein LMJF.21.1700 […] 2 SUBUNIT, PUTATIVE) | fold change (protein LMJF.22.1630 CCR4 […], PUTATIVE) | fold change (protein LMJF.23.0200 ENDORI[…]-PSP (PB5), PUTATIVE) | fold change vs vehicle control (protein LMJF.24.0280 DYNEIN INTERMEDIATE-CHAIN-LIKE PROTEIN) | fold change (protein LMJF.26.1960 HY[…], CONSERVED) | fold change (protein LMJF.27.2030 BRANCHED-CHAIN AMINO ACID AMINOTRANSFERASE, PUTATIVE) | fold change vs vehicle control (protein LMJF.28.2260 […] PROTEIN, PUTATIVE) | fold change (protein LMJF.30.2970 GLYCERALDEHYDE 3-PHOSPHATE DEHYDROGENASE, GLYCOSOMAL)
1.05: fold change (protein LINJ.33.0350 HEAT SHOCK PROTEIN 83-1) | fold change (protein LMJF.05.0030 RAS-LIKE SMALL GTPASES, PUTATIVE) | fold change (protein LMJF.14.0190 HY[…], CONSERVED) | fold change vs vehicle control (protein LMJF.30.0120 […] SYNTHASE) | fold change (protein LMJF.30.2550 HEAT SHOCK 70-RELATED PROTEIN 1, MIT[…], PUTATIVE) | fold change (protein LMJF.31.2280 ADP-RI[…], PUTATIVE)
1.09: fold change (protein LMJF.21.1580 HY[…], UNKNOWN FUNCTION) | fold change (protein LMJF.28.2510 ACYL-COA DEHYDROGENASE, PUTATIVE)
1.04: fold change (protein LMJF.26.0830 […], PUTATIVE,ASPARTATE--AMMONIA LIGASE, PUTATIVE) | fold change (protein LMJF.30.0460 ASPARTYL-TRNA SYNTHETASE, PUTATIVE)
1.01: fold change (protein LINJ.36.7350 CYTOCHROME C OXIDASE SUBUNIT I) | fold change (protein LMJF.11.1000 PYRUVATE PHOSPHATE DIKINASE, PUTATIVE) | fold change (protein LMJF.14.0460 CYS[…]-LYASE-LIKE PROTEIN) | fold change (protein LMJF.22.0420 40S RIBOSOMAL PROTEIN S15, PUTATIVE) | fold change (protein LMJF.29.0820 CYSTEINE PEPTIDASE C (CPC)) | fold change (protein LMJF.30.2350 SPHINGOSINE 1-PHOSPHATE LYASE) | fold change (protein LMJF.31.0440 CYTOSKELETON-ASSOCIATED PROTEIN CAP5 5, PUTATIVE)
1.02: fold change (protein LMJF.02.0450 VOLTAGE-DEPENDENT ANION-SELECTIVE CHANNEL, PUTATIVE) | fold change (protein LMJF.03.0630 HY[…], CONSERVED) | fold change (protein LMJF.09.0970 […]-1 GAMMA) | fold change (protein LMJF.20.0100 PHOSPH[…] C, GLYCOSOMAL) | fold change (protein LMJF.25.1710 PYRUVATE DEHYDROGENASE E1 BETA SUBUNIT, PUTATIVE)
1.19: fold change (protein LMJF.16.0960 HY[…], CONSERVED (methyltransferase domain containing protein, putative))
0.74: fold change (protein LMJF.27.0130 HY[…], CONSERVED)
1.43: fold change (protein LMJF.25.0120 ELECTRON TRANSFER FLAVOPROTEIN, PUTATIVE)
1.07: fold change (protein LINJ.15.0090 HEAT SHOCK PROTEIN HSLVU, ATPASE SUBUNIT HSLU, PUTATIVE) | fold change vs vehicle control (protein LMJF.21.1060 40S RIBOSOMAL PROTEIN S23, PUTATIVE) | fold change (protein LMJF.27.0930 ISOVALERYL-COA DEHYDROGENASE, PUTATIVE)
0.96: fold change (protein LINJ.29.0110 HY[…], CONSERVED) | fold change (protein LMJF.08.1110 STRESS-INDUCED PROTEIN STI1) | fold change (protein LMJF.30.2330 HY[…], UNKNOWN FUNCTION)
0.99: fold change (protein LINJ.13.1460 ALPHA TUBULIN) | fold change (protein LMJF.06.0880 ACYL-COENZYME A DEHYDROGENASE, PUTATIVE) | fold change (protein LMJF.12.0670 CYTOCHROME C OXIDASE SUBUNIT IV) | fold change (protein LMJF.18.1380 PYRUVATE DEHYDROGENASE E1 COMPONENT ALPHA SUBUNIT, PUTATIVE) | fold change (protein LMJF.28.0980 P27 PROTEIN, PUTATIVE) | fold change (protein LMJF.28.2420 2-OXOGLUTARATE DEHYDROGENASE, E2 COMPONENT, DIHYDROLIPOAMIDE SUCCINYLTRANSFERASE, PUTATIVE)
1.06: fold change (protein LINJ.26.0840 40S RIBOSOMAL PROTEIN S16, PUTATIVE) | fold change (protein LMJF.19.0995 4-COUMARATE:COA LIGASE-LIKE PROTEIN) | fold change (protein LMJF.19.1530 PEPT[…]-LIKE PROTEIN) | fold change (protein LMJF.30.0630 HISTIDYL-TRNA SYNTHETASE, PUTATIVE)
0.81: fold change (protein LINJ.19.0140 PROTEIN KINASE, PUTATIVE,MITOGEN-ACTIVATED PROTEIN KINASE, PUTATIVE)
0.97: fold change (protein LINJ.28.1310 GLUCOSE-REGULATED PROTEIN 78, PUTATIVE) | fold change (protein LMJF.02.0460 HY[…], CONSERVED) | fold change (protein LMJF.07.0270 ACETYLORNITHINE DEACETYLASE-LIKE PROTEIN) | fold change (protein LMJF.15.0230 LYSYL-TRNA SYNTHETASE, PUTATIVE) | fold change (protein LMJF.21.0540 LA RNA BINDING PROTEIN, PUTATIVE) | fold change (protein LMJF.21.1090 T-COMPLEX PROTEIN 1, DELTA SUBUNIT, PUTATIVE) | fold change (protein LMJF.28.2750 ACTIVATED PROTEIN KINASE C RECEPTOR (LACK)) | fold change (protein LMJF.31.2790 ADP-RI[…], PUTATIVE)
0.91: fold change vs vehicle control (protein LMJF.13.0450 HY[…], CONSERVED) | fold change (protein LMJF.24.0770 MALIC ENZYME, PUTATIVE)
1: fold change (protein LINJ.36.2140 CHAPERONIN HSP60, MIT[…]) | fold change (protein LMJF.19.0750 HY[…], CONSERVED) | fold change (protein LMJF.29.0020 TRANSCRIPTION FACTOR-LIKE PROTEIN)
1.18: fold change (protein LMJF.10.1010 NUCLEOSIDE PHOSPHORYLASE-LIKE PROTEIN)
0.94: fold change (protein LINJ.09.0030 HY[…], CONSERVED) | fold change (protein LINJ.25.1460 GTP-BINDING PROTEIN, PUTATIVE) | fold change (protein LMJF.11.0240 […] 7 SUBUNIT, PUTATIVE) | fold change (protein LMJF.11.0350 14-3-3 PROTEIN, PUTATIVE) | fold change (protein LMJF.12.0280 ORNITHINE DECARBOXYLASE, PUTATIVE) | fold change (protein LMJF.14.0650 FATTY ACID ELONGASE, PUTATIVE) | fold change (protein LMJF.15.1440 GLUTAMINYL-TRNA SYNTHETASE, PUTATIVE) | fold change vs vehicle control (protein LMJF.16.1427 PAR[…] PROTEIN 2C) | fold change (protein LMJF.26.2000 HY[…], CONSERVED (methyltransferase domain containing protein, putative)) | fold change (protein LMJF.30.0750 4-METHYL-5(BETA-HYDROXYETHYL)-THIAZOLE MON[…] PROTEIN, PUTATIVE)
0.84: fold change (protein LMJF.06.0140 […] 6 SUBUNIT, PUTATIVE) | fold change (protein LMJF.12.1270 ARGININE N-METHYLTRANSFERASE-LIKE PROTEIN) | fold change (protein LMJF.23.0810 ACTIN INTERACTING PROTEIN-LIKE PROTEIN)
0.95: fold change (protein LINJ.01.0790 […] 4A, PUTATIVE) | fold change (protein LMJF.07.0640 HY[…], CONSERVED) | fold change (protein LMJF.15.1160 TR[…]) | fold change (protein LMJF.21.1555 HY[…], CONSERVED) | fold change (protein LMJF.21.1710 CYTOCHROME C OXIDASE SUBUNIT VI, PUTATIVE) | fold change (protein LMJF.24.1840 LYSOPHOSPHOLIPASE, PUTATIVE) | fold change (protein LMJF.30.3530 HY[…], CONSERVED) | fold change (protein LMJF.31.1110 HY[…], CONSERVED (emp24/gp25L/p24 family/GOLD, putative))
0.82: fold change (protein LINJ.07.0210 CYTOCHROME C1, HEME PROTEIN, MIT[…], PUTATIVE)
1.14: fold change (protein LMJF.07.0340 ATP-DEPENDENT DEAD/H RNA HELICASE, PUTATIVE)
0.88: fold change (protein LINJ.03.0940 HY[…], CONSERVED) | fold change (protein LINJ.21.0900 HY[…], CONSERVED) | fold change (protein LMJF.23.0110 GDP-MANNOSE PYROPHOSPHORYLASE) | fold change (protein LMJF.28.2680 […] ASSEMBLY PROTEIN-LIKE PROTEIN)
0.93: fold change (protein LINJ.26.1080 HY[…], CONSERVED) | fold change (protein LINJ.29.0770 P[…] SIGNAL TYPE 2 RECEPTOR, PUTATIVE) | fold change (protein LMJF.18.0450 SERINE CARBOXYPEPTIDASE (CBP1), PUTATIVE) | fold change vs vehicle control (protein LMJF.21.1552 RNA HELICASE, PUTATIVE)
0.85: fold change (protein LMJF.30.3130 VALYL-TRNA SYNTHETASE, PUTATIVE)
0.9: fold change (protein LMJF.30.3600 ATP SYNTHASE, EPSILON CHAIN, PUTATIVE)
1.03: fold change (protein LINJ.27.1150 T-COMPLEX PROTEIN 1, BETA SUBUNIT, PUTATIVE) | fold change (protein LMJF.13.0870 MIT[…] ALPHA SUBUNIT, PUTATIVE) | fold change (protein LMJF.13.1660 CHAPERONIN TCP20, PUTATIVE) | fold change (protein LMJF.17.0980 HY[…], CONSERVED (Mak10 subunit, NatC N(alpha)-terminal acetyltransferase, putative)) | fold change (protein LMJF.18.0510 ACONITASE, PUTATIVE) | fold change (protein LMJF.22.0270 HY[…], CONSERVED) | fold change (protein LMJF.27.2400 HEAT SHOCK PROTEIN DNAJ, PUTATIVE) | fold change vs vehicle control (protein LMJF.32.0400 ATP-DEPENDENT RNA HELICASE, PUTATIVE)
0.87: fold change (protein LINJ.19.0300 RNA BINDING PROTEIN) | fold change (protein LMJF.32.0050 PROTEIN TRANSPORT PROTEIN SEC13, PUTATIVE)
1.1: fold change (protein LMJF.11.0550 NUCLEOBASE TRANSPORTER) | fold change (protein LMJF.23.0640 HY[…], CONSERVED)
0.73: fold change vs vehicle control (protein LMJF.19.0300 RNA BINDING PROTEIN, PUTATIVE)
0.89: fold change (protein LMJF.07.1050 CATION-TR[…], PUTATIVE) | fold change vs vehicle control (protein LMJF.10.1240 HY[…], CONSERVED) | fold change (protein LMJF.22.1540 ALANYL-TRNA SYNTHETASE, PUTATIVE) | fold change (protein LMJF.29.2240 AMINOPEPTIDASE, PUTATIVE,METALLO-PEPTIDASE, CLAN MA(E), FAMILY M1)
0.86: fold change (protein LINJ.25.2170 HY[…], CONSERVED) | fold change (protein LMJF.13.1190 ADENYL[…], PUTATIVE) | fold change (protein LMJF.27.0880 2-OXOGLUTARATE DEHYDROGENASE SUBUNIT, PUTATIVE)
